Here are results for nine molecules from article PMC5327418.

No constants are given. Whether binding was seen depends on the method and setting. Binding seen in cells or lysates may run through a third protein. A yes stands for co-enrichment or nearness to the bait. Other partners may have been found. For part of these data: A no says only that the protein was not detected with the bait. For part of these data: Sequences can lack the tags named with a protein.

The target in assay [1] is Med17-HA (S. cerevisiae (endogenous in S288c)) (UniProt P32569). Kind of assay: affinity purification with mass spectrometry; CoIP of Med17-HA on anti-HA magnetic beads from cryoground yeast lysate, 2 h at 4 °C; 20 mM HEPES pH 7.5, 300 mM KOAc, 10% glycerol, 0.01% NP-40, 6 mM MnSO4, 1 mM DTT, Cyanase nuclease; parallel control CoIP from 15N-labelled wild type cells, mixing after purification (MAP); GeLC-MS/MS, three biological replicates.

Assay [2] has as its target T1, Med17-HA (S. cerevisiae (endogenous in S288c)), P32569.
T1 chain: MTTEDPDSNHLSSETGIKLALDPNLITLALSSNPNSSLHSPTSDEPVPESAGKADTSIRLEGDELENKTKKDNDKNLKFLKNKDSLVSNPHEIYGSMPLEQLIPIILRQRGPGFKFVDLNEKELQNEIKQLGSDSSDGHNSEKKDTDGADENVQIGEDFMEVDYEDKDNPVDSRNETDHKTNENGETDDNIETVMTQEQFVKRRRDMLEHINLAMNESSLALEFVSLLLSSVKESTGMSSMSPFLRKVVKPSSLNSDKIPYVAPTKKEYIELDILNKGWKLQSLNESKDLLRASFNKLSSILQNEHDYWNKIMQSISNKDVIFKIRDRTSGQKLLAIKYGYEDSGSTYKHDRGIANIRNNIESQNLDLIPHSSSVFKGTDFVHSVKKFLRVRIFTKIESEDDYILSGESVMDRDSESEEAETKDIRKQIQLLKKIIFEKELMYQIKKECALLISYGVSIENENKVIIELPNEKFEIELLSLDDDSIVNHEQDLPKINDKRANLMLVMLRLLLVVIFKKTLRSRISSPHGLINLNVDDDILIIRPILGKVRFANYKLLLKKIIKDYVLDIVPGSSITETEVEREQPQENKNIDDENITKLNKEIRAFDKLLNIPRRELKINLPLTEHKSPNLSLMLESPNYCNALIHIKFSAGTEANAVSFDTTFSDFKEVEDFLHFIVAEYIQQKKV
Described as above. The settings on record: remark: other sources report otherwise.

B1: Cdc14 (protein, UniProt Q00684 1-551)
chain: MRRSVYLDNTIEFLRGRVYLGAYDYTPEDTDELVFFTVEDAIFYNSFHLDFGPMNIGHLYRFAVIFHEILNDPENANKAVVFYSSASTRQRANAACMLCCYMILVQAWTPHQVLQPLAQVDPPFMPFRDAGYSNADFEITIQDVVYGVWRAKEKGLIDLHSFNLESYEKYEHVEFGDFNVLTPDFIAFASPQEDHPKGYLATKSSHLNQPFKSVLNFFANNNVQLVVRLNSHLYNKKHFEDIGIQHLDLIFEDGTCPDLSIVKNFVGAAETIIKRGGKIAVHCKAGLGRTGCLIGAHLIYTYGFTANECIGFLRFIRPGMVVGPQQHWLYLHQNDFREWKYTTRISLKPSEAIGGLYPLISLEEYRLQKKKLKDDKRVAQNNIEGELRDLTMTPPSNGHGALSARNSSQPSTANNGSNSFKSSAVPQTSPGQPRKGQNGSNTIEDINNNRNPTSHANRKVVIESNNSDDESMQDTNGTSNHYPKVSRKKNDISSASSSRMEDNEPSATNINNAADDTILRQLLPKNRRVTSGRRTTSAAGGIRKISGSIKK
With B1, the binding result in assay [1] is “binds”.

B2: Rpa43 (protein, UniProt P46669 1-326)
chain: MSQVKRANENRETARFIKKHKKQVTNPIDEKNGTSNCIVRVPIALYVSLAPMYLENPLQGVMKQHLNPLVMKYNNKVGGVVLGYEGLKILDADPLSKEDTSEKLIKITPDTPFGFTWCHVNLYVWQPQVGDVLEGYIFIQSASHIGLLIHDAFNASIKKNNIPVDWTFVHNDVEEDADVINTDENNGNNNNEDNKDSNGGSNSLGKFSFGNRSLGHWVDSNGEPIDGKLRFTVRNVHTTGRVVSVDGTLISDADEEGNGYNSSRSQAESLPIVSNKKIVFDDEVSIENKESHKELDLPEVKEDNGSEIVYEENTSESNDGESSDSD
With B2, the binding result in assay [1] was “binds”.

B3: Rpac2 (protein, UniProt P28000 1-142)
chain: MTEDIEQKKTATEVTPQEPKHIQEEEEQDVDMTGDEEQEEEPDREKIKLLTQATSEDGTSASFQIVEEDHTLGNALRYVIMKNPDVEFCGYSIPHPSENLLNIRIQTYGETTAVDALQKGLKDLMDLCDVVESKFTEKIKSM
As for B3, the binding entry in assay [1] is “binds”.

B4: Swp82, P43554 1-623 (protein)
chain: MLGEDEGNTVLEKGNNPSVKQGEVGAVFIVPKILIREHERVILKQILQILDQDELVQPPLDKFPYKKLELPKYIDELKTRDATNTSYKMIQLDAYGEKKVGSNGELFGGRHYLFNTFTFTAHMGVLLVLLQDVIKVLYQSNATHDEDEFIVQHDQILVMETSEEQTKFLAKNGVIPEESKGSFKYITARSAFVEFGASVIAGGQRIVDDYWESLAKKQNLSSHQRVFKLSTNLISKISLLRPSFQNNRISNANEISANTNNTCTISTSKFESQYPIVTEQPSAEIREAYIENFAKGEHISAIVPGQSISGTLELSAQFRVPRYHSKNSFQQALQMKAMDIPIGRHEELLAQYESQAPDGSASISLPNHIPSVNPSNKPIKRMLSSILDINVSSSKNKKSEENEMIKPMNKGQHKNNTSLNINGWKFESLPLKSAENSGKQQYYRGLPLYEKNTLLERLKQLTPNEIKELEHLHDAVFVNTGLQNVRKVRTKKWKKYWQYKAGIPIGLKRSQLDEFKNKYLKDVLAQTSVTTNFNEITNTDETITTKRVPNPNFLGNCNIKDFKPPYIYSHVNKVPQNVAGDKTAVKLDTEVKNTNANPVVATDPVAAKPDNLANFSNEVAMNN
B4: in assay [2], the binding result was “binds”.

B5: Rpac1 (protein, UniProt P07703 1-335)
chain: MSNIVGIEYNRVTNTTSTDFPGFSKDAENEWNVEKFKKDFEVNISSLDAREANFDLINIDTSIANAFRRIMISEVPSVAAEYVYFFNNTSVIQDEVLAHRIGLVPLKVDPDMLTWVDSNLPDDEKFTDENTIVLSLNVKCTRNPDAPKGSTDPKELYNNAHVYARDLKFEPQGRQSTTFADCPVVPADPDILLAKLRPGQEISLKAHCILGIGGDHAKFSPVSTASYRLLPQINILQPIKGESARRFQKCFPPGVIGIDEGSDEAYVKDARKDTVSREVLRYEEFADKVKLGRVRNHFIFNVESAGAMTPEEIFFKSVRILKNKAEYLKNCPITQ
With B5, the binding entry in assay [1] is “binds”.

B6: Srb8, P25648 1-1427 (protein)
chain: MNNGSGRYLLTPPDDLHPYVPSSKPQEQVYPDFKPWEHTAAEDQILANFVAKGFYHTPMVNFESISARSSVHESLVTQSNILSQQFDKIIKIREDHINKIPSNSTTTLHGPGFQLPNRITLTDHRKETWLHELSSSHTSLVKIGKFIPHGLKRRQVIEQCYLKFIPLKRAIWLIKCCYFIEWKSNHKKKRSNAAGADDAISMHLLKDWTDTFVYILEKLIFDMTNHYNDSQQLRTWKRQISYFLKLLGNCYSLRLINKEIFHHWLVEFINKMENFEFLPLSLHILMIFWNDICQIDTNAPVAATITSSQKEPFFLVTKITDMLLHKYYIVSSSKSMINDENYIINDIKKNNKIKLNILKILSSLILKIFQEQSLEVFIFPTSNWEIYKPLLFEIVSNADTNQNSDMKKKLELISYRNESLKNNSSIRNVIMSASNANDFQLTIVTCKQFPKLSCIQLNCIDTQFTKLLDDNPTEFDWPTYVDQNPLTMHKIIQLILWSIHPSRQFDHYESNQLVAKLLLLRINSTDEDLHEFQIEDAIWSLVFQLAKNFSAQKRVVSYMMPSLYRLLNILITYGIIKVPTYIRKLISSGLLYLQDSNDKFVHVQLLINLKISPLMKSQYNMVLRNVMEYDVKFYEIFNFDQLVEITEQIKMRILSNDITNLQLSKTPLSIKIMVAEWYLSHLCSGILSSVNRTVLLKIFKIFCIDLEVFHHFFKWIEFIVYHQLLSDIESLEALMDILLCYQKLFSQFINDHILFTKTFIFIYKKVLKEKDVPAYNVTSFMPFWKFFMKNFPFVLKVDNDLRIELQSVYNDEKLKTEKLKNDKSEVLKVYSMINNSNQAVGQTWNFPEVFQVNIRFLLHNSEIIDTNTSKQFQKARNNVMLLIATNLKEYNKFMSIFLKRKDFTNKNLIQLISLKLLTFEVTQNVLGLEYIIRLLPINLENNDGSYGLFLKYHKEQFIKSNFEKILLTCYELEKKYHGNECEINYYEILLKILITYGSSPKLLATSTKIIMLLLNDSVENSSNILEDILYYSTCPSETDLNDIPLGSGQPDNDTVVTNDDKSDDDDHTVDEIDHVEYYVMMDFANLWVFQAFTCFCIKKIMENNEPAMAMEDLKNFIFQIIEITNSNDLCSQIFDQLKDMQTIEMITQIVEKDFCTSCLQNNNQKIDDNYIVVVIEIITSLSMRFQRETSGMIVISMENYHLLIKIIRQLSELNEGNLSKREIQIDAVLKIFSFHQDSIFQRIIADLSADKPTSPFIDSICKLFDKISFNLRLKLFLYEILSSLKSFAIYSSTIDAPAFHTSGKVELPKKLLNLPPFQVSSFVKETKLHSGDYGEEEDADQEESFSLNLGIGIVEIAHENEQKWLIYDKKDHKYVCTFSMEPYHFISNYNTKYTDDMATGSNDTTAFNDSCVNLSLFDARFERKNPH
With B6, in assay [2], the binding result is “binds”.

B7: Rrn3 (protein, UniProt P36070 1-627)
chain: MMAFENTSKRPPQDFVAPIDQKKRKVQFSDSTGLVTLQPEEIKDEVFSAAMYSRFVKSALDDLDKNDSTQIGIIANQVALPSKNPERINDKNLNILLDILSSNINRIESSRGTFLIQSIINFEKWWELPPHTLSKYIYFIKILCSSIPKWWQDVSMILVSCFILPIKQTVCHHDMLKYFLRMIPSSMGFIDTYLAKFFPNKNDTRRKLVNYTSNLLKLRGYCSELGFQIWSLLIEKIISIDVELQNELDELDDDVDDDDLEEVDLEDDDDLDDDSGDDDDENCGNSNEELRSGAADGSQSDSEDMDIIEGMDGTEEYNVELTQGIKELSTKLDSILTLVSTHVEEQVTPESLESGEGVGVFNTLTTLFKTHVLPTYYTRSIQYIMFHVSQQQLELMDSFLVTLIDISFAVNEAAEKKIKSLQYLGSYIARAKKLSRTQIIFVASYLTSWLNRYVIEREEEVDQRGGMERFKHFYAAFQALCYIFCFRHNIFRDTDGNWECELDKFFQRMVISKFNPLKFCNENVMLMFARIAQQESVAYCFSIIENNNNERLRGIIGKADSDKKENSAQANTTSSSWSLATRQQFIDLQSYFPYDPLFLKNYKILMKEYYIEWSEASGEYESDGSDD
In the case of B7, the binding result in assay [1] is given as “no binding”.

B8: Hmo1 (protein, UniProt Q03973 1-246)
chain: MTTDPSVKLKSAKDSLVSSLFELSKAANQTASSIVDFYNAIGDDEEEKIEAFTTLTESLQTLTSGVNHLHGISSELVNPIDDDKDAIIAAPVKAVRRKIERDPNAPKKPLTVFFAYSAYVRQELREDRQKAGLPPLSSTEITQEISKKWKELSDNEKEKWKQAYNVELENYQREKSKYLEAKKNGTLPPASLENGPTHAPVPIPFSLQHAAEPPVEKRPHDDDGSSEKKKKKKKKDKKKDKSNSSI
For B8, the binding result in assay [1] is given as “binds”.

B9: Rpa49 (protein, UniProt Q01080 1-415)
chain: MSVKRSVSEIEIESVQDQPSVAVGSFFKGFRAPSDTTFDLYKKKKSEKDEFVLHGENERLEYEGYTDSSSQASNQYVVGLFNPEKKSIQLYKAPVLVSKVVSKSSKNLRGPKIKSKSDTRPSALRNALGEAFGTKKAKKAIADLERNRIDSDKLTDSAIDIVDSVRTASKDLPTRAQLDEITSNDRPTPLANIDATDVEQIYPIESIIPKKELQFIRVSSILKEADKEKKLELFPYQNNSKYVAKKLDSLTQPSQMTKLQLLYYLSLLLGVYENRRVNNKTKLLERLNSPPEILVDGILSRFTVIKPGQFGRSKDRSYFIDPQNEDKILCYILAIIMHLDNFIVEITPLAHELNLKPSKVVSLFRVLGAIVKGATVAQAEAFGIPKSTAASYKIATMKVPFKLPEMTRRGRGPRR
With B9, the binding result in assay [1] is recorded as “binds”.
